Laboratory results from paper PMC9389318.
These are yes or no findings as the source states them, for the method shown. Binding seen in cells or lysates may run through a third protein. Some results given as binding are weak or reduced against the parent protein; the word gives no strength. For part of these data: Sequences can lack the tags named with a protein. Each block holds one molecule with its values, some of them ahead of it.

Sequences of proteins named here, by UniProt entry; tags and fusion partners are left off. Residues count along the entry.
UniProt P01833, residues 19-764: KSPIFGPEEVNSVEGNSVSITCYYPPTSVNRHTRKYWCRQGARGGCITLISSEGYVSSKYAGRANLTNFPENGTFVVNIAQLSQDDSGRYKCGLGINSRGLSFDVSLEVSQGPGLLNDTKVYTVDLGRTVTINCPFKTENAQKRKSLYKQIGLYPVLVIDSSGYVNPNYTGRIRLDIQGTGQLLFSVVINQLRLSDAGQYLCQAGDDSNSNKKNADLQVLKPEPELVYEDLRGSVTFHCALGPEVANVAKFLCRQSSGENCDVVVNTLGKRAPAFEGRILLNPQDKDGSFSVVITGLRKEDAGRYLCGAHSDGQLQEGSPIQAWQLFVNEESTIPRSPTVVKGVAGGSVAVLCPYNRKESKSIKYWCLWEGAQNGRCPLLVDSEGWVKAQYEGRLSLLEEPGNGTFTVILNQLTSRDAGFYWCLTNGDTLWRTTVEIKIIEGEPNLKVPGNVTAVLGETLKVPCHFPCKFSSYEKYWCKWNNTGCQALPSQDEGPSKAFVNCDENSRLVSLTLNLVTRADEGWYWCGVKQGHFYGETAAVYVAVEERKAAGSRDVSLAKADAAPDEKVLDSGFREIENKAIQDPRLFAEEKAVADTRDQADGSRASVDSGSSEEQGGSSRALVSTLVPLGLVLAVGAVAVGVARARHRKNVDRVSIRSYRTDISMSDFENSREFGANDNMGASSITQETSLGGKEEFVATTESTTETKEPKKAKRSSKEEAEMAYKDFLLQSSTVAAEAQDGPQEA
UniProt Q13751, residues 18-1172: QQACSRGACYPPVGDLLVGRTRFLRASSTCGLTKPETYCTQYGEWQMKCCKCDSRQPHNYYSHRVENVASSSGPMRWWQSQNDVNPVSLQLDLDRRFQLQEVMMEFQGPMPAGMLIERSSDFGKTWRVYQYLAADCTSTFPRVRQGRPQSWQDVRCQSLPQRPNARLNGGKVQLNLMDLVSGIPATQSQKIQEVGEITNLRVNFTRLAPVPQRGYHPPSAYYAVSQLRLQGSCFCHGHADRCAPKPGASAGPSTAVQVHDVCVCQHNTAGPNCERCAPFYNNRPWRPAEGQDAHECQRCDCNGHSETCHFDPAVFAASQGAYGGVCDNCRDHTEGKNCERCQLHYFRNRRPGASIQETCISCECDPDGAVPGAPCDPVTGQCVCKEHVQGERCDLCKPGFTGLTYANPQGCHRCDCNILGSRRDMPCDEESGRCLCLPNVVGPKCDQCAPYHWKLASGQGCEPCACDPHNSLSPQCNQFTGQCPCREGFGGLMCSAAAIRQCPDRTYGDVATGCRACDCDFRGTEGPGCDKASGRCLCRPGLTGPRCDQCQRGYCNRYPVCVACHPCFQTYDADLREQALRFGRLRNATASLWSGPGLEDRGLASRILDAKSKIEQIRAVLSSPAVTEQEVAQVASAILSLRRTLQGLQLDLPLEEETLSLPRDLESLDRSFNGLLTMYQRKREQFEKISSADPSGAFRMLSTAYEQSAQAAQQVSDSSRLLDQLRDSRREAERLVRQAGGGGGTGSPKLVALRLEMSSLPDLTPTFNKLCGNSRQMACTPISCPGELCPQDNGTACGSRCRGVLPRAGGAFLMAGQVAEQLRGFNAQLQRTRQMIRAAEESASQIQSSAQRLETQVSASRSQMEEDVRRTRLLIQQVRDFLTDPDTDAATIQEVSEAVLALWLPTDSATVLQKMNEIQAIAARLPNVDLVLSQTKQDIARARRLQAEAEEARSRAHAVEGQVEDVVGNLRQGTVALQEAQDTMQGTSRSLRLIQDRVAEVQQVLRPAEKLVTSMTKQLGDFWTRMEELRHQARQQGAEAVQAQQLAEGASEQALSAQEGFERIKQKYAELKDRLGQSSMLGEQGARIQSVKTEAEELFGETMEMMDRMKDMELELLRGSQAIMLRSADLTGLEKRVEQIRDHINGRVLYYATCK

Tests used:
[1] = target: Polymeric immunoglobulin receptor (PIGR), as in the co-immunoprecipitation with LAMB3 (UniProt P01833); assay: co-IP; co-immunoprecipitation of PIGR and LAMB3; IgG as control; cells, constructs and precipitating antibody not stated
[2] = target: T1, RE1 silencing transcription factor (REST) tagged with Flag (UniProt Q13127); assay: co-IP; RKO and HCT-8 cells transfected with PIGR-GFP and/or REST-Flag; lysed in non-ionic detergent RIPA buffer; precipitation with GFP antibody or with Flag antibody, blot for the partner
T1 sequence: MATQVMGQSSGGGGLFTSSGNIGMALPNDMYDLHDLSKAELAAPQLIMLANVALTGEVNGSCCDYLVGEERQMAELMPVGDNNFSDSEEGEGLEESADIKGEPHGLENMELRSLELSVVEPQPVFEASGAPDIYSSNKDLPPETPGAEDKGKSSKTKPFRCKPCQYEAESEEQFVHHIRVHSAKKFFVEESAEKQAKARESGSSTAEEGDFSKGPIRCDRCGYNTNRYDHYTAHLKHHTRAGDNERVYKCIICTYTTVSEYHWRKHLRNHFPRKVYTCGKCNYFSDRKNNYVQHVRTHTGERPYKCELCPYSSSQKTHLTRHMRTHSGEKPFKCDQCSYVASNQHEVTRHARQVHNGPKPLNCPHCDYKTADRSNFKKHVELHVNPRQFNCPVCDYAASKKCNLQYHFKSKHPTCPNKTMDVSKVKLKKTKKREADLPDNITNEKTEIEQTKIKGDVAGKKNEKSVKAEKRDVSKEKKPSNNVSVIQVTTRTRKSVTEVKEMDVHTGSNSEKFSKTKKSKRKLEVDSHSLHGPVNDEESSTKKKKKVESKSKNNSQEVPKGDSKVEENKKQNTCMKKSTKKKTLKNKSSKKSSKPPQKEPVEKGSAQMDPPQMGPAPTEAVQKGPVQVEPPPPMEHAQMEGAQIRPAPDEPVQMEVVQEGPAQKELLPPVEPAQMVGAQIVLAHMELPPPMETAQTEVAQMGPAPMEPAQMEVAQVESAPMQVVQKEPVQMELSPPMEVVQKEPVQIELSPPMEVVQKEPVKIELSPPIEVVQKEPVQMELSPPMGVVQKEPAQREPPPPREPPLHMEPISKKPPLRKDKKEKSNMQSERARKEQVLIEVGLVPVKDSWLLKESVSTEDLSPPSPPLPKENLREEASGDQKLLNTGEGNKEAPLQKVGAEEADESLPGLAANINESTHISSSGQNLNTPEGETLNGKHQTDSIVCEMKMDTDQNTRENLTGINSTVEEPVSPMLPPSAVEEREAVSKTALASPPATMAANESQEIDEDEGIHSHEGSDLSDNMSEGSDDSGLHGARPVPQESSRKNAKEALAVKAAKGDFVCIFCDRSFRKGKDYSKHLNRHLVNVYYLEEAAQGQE

[3] = target: Polymeric immunoglobulin receptor (PIGR) tagged with GFP (UniProt P01833); assay: as above

- binding [1]: no binding
Molecule: Laminin subunit beta 3 (LAMB3) (from UniProt Q13751 18-1172)

- binding [2]: binds
Molecule: Polymeric immunoglobulin receptor (PIGR) tagged with GFP (from UniProt P01833 19-764)

- binding [3]: binds
B1: RE1 silencing transcription factor (REST) tagged with Flag (protein, UniProt Q13127 1-1097)
chain: MATQVMGQSSGGGGLFTSSGNIGMALPNDMYDLHDLSKAELAAPQLIMLANVALTGEVNGSCCDYLVGEERQMAELMPVGDNNFSDSEEGEGLEESADIKGEPHGLENMELRSLELSVVEPQPVFEASGAPDIYSSNKDLPPETPGAEDKGKSSKTKPFRCKPCQYEAESEEQFVHHIRVHSAKKFFVEESAEKQAKARESGSSTAEEGDFSKGPIRCDRCGYNTNRYDHYTAHLKHHTRAGDNERVYKCIICTYTTVSEYHWRKHLRNHFPRKVYTCGKCNYFSDRKNNYVQHVRTHTGERPYKCELCPYSSSQKTHLTRHMRTHSGEKPFKCDQCSYVASNQHEVTRHARQVHNGPKPLNCPHCDYKTADRSNFKKHVELHVNPRQFNCPVCDYAASKKCNLQYHFKSKHPTCPNKTMDVSKVKLKKTKKREADLPDNITNEKTEIEQTKIKGDVAGKKNEKSVKAEKRDVSKEKKPSNNVSVIQVTTRTRKSVTEVKEMDVHTGSNSEKFSKTKKSKRKLEVDSHSLHGPVNDEESSTKKKKKVESKSKNNSQEVPKGDSKVEENKKQNTCMKKSTKKKTLKNKSSKKSSKPPQKEPVEKGSAQMDPPQMGPAPTEAVQKGPVQVEPPPPMEHAQMEGAQIRPAPDEPVQMEVVQEGPAQKELLPPVEPAQMVGAQIVLAHMELPPPMETAQTEVAQMGPAPMEPAQMEVAQVESAPMQVVQKEPVQMELSPPMEVVQKEPVQIELSPPMEVVQKEPVKIELSPPIEVVQKEPVQMELSPPMGVVQKEPAQREPPPPREPPLHMEPISKKPPLRKDKKEKSNMQSERARKEQVLIEVGLVPVKDSWLLKESVSTEDLSPPSPPLPKENLREEASGDQKLLNTGEGNKEAPLQKVGAEEADESLPGLAANINESTHISSSGQNLNTPEGETLNGKHQTDSIVCEMKMDTDQNTRENLTGINSTVEEPVSPMLPPSAVEEREAVSKTALASPPATMAANESQEIDEDEGIHSHEGSDLSDNMSEGSDDSGLHGARPVPQESSRKNAKEALAVKAAKGDFVCIFCDRSFRKGKDYSKHLNRHLVNVYYLEEAAQGQE
